Reference: the supplement of paper PMC4604168 (melanoma cell lines)
The other results are listed elsewhere or left out. Many values rest on one well or one pass, so single values are uncertain.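 Imaging used 1,536-well plates; nuclei positive for cleaved PARP by antibody were divided by total DNA-stained nuclei to yield the apoptosis fraction. Doses for screening kept most cells viable, and cell lines differ markedly in resting and induced cleaved-PARP levels.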

Test system: WM115
Test: cleaved PARP positive nuclei fraction relative to DMSO control; melanoma cells; higher = more apoptosis
Settings: library dose: low library concentration; 72 h

| SMILES | cleaved PARP positive nuclei fraction |
| --- | --- |
| N.N.[Cl][Pt][Cl] [cisplatin] + COc1cc2ncnc(Nc3ccc(Oc4ccccc4)cc3)c2cc1OC [SrcI1] (first compound 1.6 µM, partner dose 2 µM) | 75.9% |
| O=c1[nH]nc(Sc2ncc([N+](=O)[O-])s2)n1-c1ccc2c(c1)OCCO2 + O=C(Oc1ccc([N+](=O)[O-])cc1)N1CCC(C(O)(c2ccc3c(c2)OCO3)c2ccc3c(c2)OCO3)CC1 [JZL184] (first compound 0.2 µM, partner dose 1 µM) | 244% |
| N.N.[Cl][Pt][Cl] [cisplatin] + O=C(O)c1ccc(-c2c[nH]c3ncc(-c4ccccc4)cc23)cc1C1CCCC1 [GSK650394] (first compound 1.6 µM, partner dose 0.16 µM) | 106% |
| Cn1cc(C2=C(c3cn(C4CCN(Cc5ccccn5)CC4)c4ccccc34)C(=O)NC2=O)c2ccccc21 [Enzastaurin] + CNC(=O)c1cc(Oc2ccc(NC(=O)Nc3ccc(Cl)c(C(F)(F)F)c3)cc2)ccn1 [sorafenib] (first compound 0.8 µM, partner dose 0.4 µM) | 54.8% |
| O=c1[nH]nc(Sc2ncc([N+](=O)[O-])s2)n1-c1ccc2c(c1)OCCO2 + C[As](C)SC[C@H](NC(=O)CC[C@H](N)C(=O)O)C(=O)NCC(=O)O [Darinaparsin] (first compound 0.2 µM, partner dose 0.4 µM) | 138% |
| N#CC[C@H](C1CCCC1)n1cc(-c2ncnc3[nH]ccc23)cn1 [ruxolitinib] + Cn1cc(C2=C(c3cn(C4CCN(Cc5ccccn5)CC4)c4ccccc34)C(=O)NC2=O)c2ccccc21 [Enzastaurin] (first compound 1 µM, partner dose 0.8 µM) | 29.7% |
| Cc1cn(-c2cc(NC(=O)c3ccc(C)c(Nc4nccc(-c5cccnc5)n4)c3)cc(C(F)(F)F)c2)cn1 [nilotinib] + C/C(O)=C(\C#N)C(=O)Nc1cc(Br)ccc1Br [LFM-A13] (first compound 0.2 µM, partner dose 2 µM) | 226% |
| C[As](C)SC[C@H](NC(=O)CC[C@H](N)C(=O)O)C(=O)NCC(=O)O [Darinaparsin] + Cc1cc(N2CCOCC2)cc2[nH]c(-c3c(NC[C@@H](O)c4cccc(Cl)c4)cc[nH]c3=O)nc12 [BMS536924] (first compound 0.4 µM, partner dose 0.2 µM) | 138% |
| N.N.[Cl][Pt][Cl] [cisplatin] + Nc1ccn([C@@H]2O[C@H](CO)[C@@H](O)C2(F)F)c(=O)n1 [gemcitabine] (first compound 1.6 µM, partner dose 0.0004 µM) | 55.3% |
| CC(C)C[C@H](NC(=O)[C@H](Cc1ccccc1)NC(=O)c1cnccn1)B(O)O [Bortezomib] + O=C(Oc1ccc([N+](=O)[O-])cc1)N1CCC(C(O)(c2ccc3c(c2)OCO3)c2ccc3c(c2)OCO3)CC1 [JZL184] (first compound 0.001 µM, partner dose 1 µM) | 138% |
| Cc1cc([N+](=O)[O-])ccc1NS(=O)(=O)c1cc(Cl)ccc1Cl + O=C(Oc1ccc([N+](=O)[O-])cc1)N1CCC(C(O)(c2ccc3c(c2)OCO3)c2ccc3c(c2)OCO3)CC1 [JZL184] (first compound 1 µM, partner dose 1 µM) | 199% |
| C[C@]12O[C@H](C[C@]1(O)CO)n1c3ccccc3c3c4c(c5c6ccccc6n2c5c31)CNC4=O [Lestaurtinib] + NC(=O)Nc1cc(-c2cccc(F)c2)sc1C(=O)N[C@H]1CCCNC1 [AZD7762] (first compound 0.004 µM, partner dose 0.02 µM) | 142% |
| Cn1cc(C2=C(c3cn(C4CCN(Cc5ccccn5)CC4)c4ccccc34)C(=O)NC2=O)c2ccccc21 [Enzastaurin] + CO[C@H]1C[C@@H]2CC[C@@H](C)[C@@](O)(O2)C(=O)C(=O)N2CCCC[C@H]2C(=O)O[C@H]([C@H](C)C[C@@H]2CC[C@@H](OCCO)[C@H](OC)C2)CC(=O)[C@H](C)/C=C(\C)[C@@H](O)[C@@H](OC)C(=O)[C@H](C)C[C@H](C)/C=C/C=C/C=C/1C [everolimus] (first compound 0.8 µM, partner dose 0.02 µM) | 90.4% |
| Cn1cc(C2=C(c3cn(C4CCN(Cc5ccccn5)CC4)c4ccccc34)C(=O)NC2=O)c2ccccc21 [Enzastaurin] + CC(C)(C)c1cnc(CSc2cnc(NC(=O)C3CCNCC3)s2)o1 [SNS-032] (first compound 0.8 µM, partner dose 0.01 µM) | 64.5% |

Quoted from the listing.
cleaved PARP positive nuclei fraction, Cn1cc(C2=C(c3cn(C4CCN(Cc5ccccn5)CC4)c4ccccc34)C(=O)NC2=O)c2ccccc21 [Enzastaurin] + CO[C@H]1C[C@@H]2CC[C@@H](C)[C@@](O)(O2)C(=O)C(=O)N2CCCC[C@H]2C(=O)O[C@H]([C@H](C)C[C@@H]2CC[C@@H](OCCO)[C@H](OC)C2)CC(=O)[C@H](C)/C=C(\C)[C@@H](O)[C@@H](OC)C(=O)[C@H](C)C[C@H](C)/C=C/C=C/C=C/1C [everolimus] (first compound 0.8 µM, partner dose 0.02 µM) reads 90.4%
cleaved PARP positive nuclei fraction, N#CC[C@H](C1CCCC1)n1cc(-c2ncnc3[nH]ccc23)cn1 [ruxolitinib] + Cn1cc(C2=C(c3cn(C4CCN(Cc5ccccn5)CC4)c4ccccc34)C(=O)NC2=O)c2ccccc21 [Enzastaurin] (first compound 1 µM, partner dose 0.8 µM) reads 29.7%
